PubChem BioAssay AID504444 (National Center for Advancing Translational Sciences (NCATS), 2011)
Out of some 360,000 compounds screened, about 7,500 (2.1%) were called active. The shares of active, inactive and inconclusive entries below differ from those in the screen. Calls come from the whole dose curve; as a rule, active = well fitted inhibition curve with a large enough effect; inconclusive = small, poorly fitted or top-dose-only effect, or effect the other way; inactive = flat fitted curve, though single readings scatter. Potencies of inconclusive entries are doubtful fits and often do not repeat.

experiment: Nrf2 qHTS screen for inhibitors; settings: A549 ARE-Fluc reporter, luciferase luminescence, 18-24 h; activity change, negative = inhibition: at 46 µM (top of the series); note: nearly all actives have a fitted effect of over 60% in size
Procedure, shortened: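 Nrf2 function is reported as luminescence of an ARE-controlled luciferase in A549 cells. Compounds were tested at several concentrations, and a CellTiter-Fluor read on the same wells flagged cytotoxicity.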
% is set by controls: 0 for no effect and ±100 for the full control effect; potency is the fitted concentration of half-maximal effect.

Question: Which “activity change, negative = inhibition” value does the source give for `O=C(Nc1ccnn1C1CCN(Cc2c[nH]c3ccccc23)CC1)c1ccccc1` here?
Answer: Its value is inactive: 17.5%.

Question: For `O=S1(=O)C2CC3CCC2(CN1Cc1cccc(F)c1)O3` (configuration not stated), which “activity change, negative = inhibition” value is on record?
Answer: Its value is inactive: 21%.

Question: With `CCCCOC(=O)CSc1nnc(-c2cc(OC)c(OC)c(OC)c2)o1` as the compound, how does the Potency read?
Answer: Its Potency is inconclusive: 0.116 µM [falling, full curve, poor fit].

Question: Which “activity change, negative = inhibition” value does the source give for `O=C(Nc1ccc(S(=O)(=O)N2CCCC2)cc1)c1ccc(F)cc1` here?
Answer: Its value is inactive: -0.62%.

Question: With `Nc1ncc(-c2nnnn2-c2ccc(Cl)cc2)c(-c2ccc(Cl)cc2)n1` as the compound, how does the Potency read?
Answer: The Potency was inconclusive: 9.2 µM [falling, partial curve].

Question: For `Cc1ccccc1Cn1c(=O)n(Cc2ccc(Cl)cc2)c(=O)c2cccnc21`, which “activity change, negative = inhibition” value is on record?
Answer: The value was inactive: 1.48%.

Question: With `CCCCCCCCCCCCN1C(=O)CSC1c1cccnc1` (configuration not stated) as the compound, how does the Potency read?
Answer: The Potency was inconclusive: 25.9 µM [falling, single point].

Question: For `COc1cc(Cl)c(C)cc1NC(=O)c1sc2nc3n(c(=O)c2c1C)CCCCC3`, which Potency is on record?
Answer: Its Potency is inconclusive: 29.1 µM [activator, single point].

Question: With `Cc1nc(NCc2ccco2)[nH]c(=O)c1CCC(C)C` as the compound, how does the Potency read?
Answer: The Potency was inconclusive: 25.9 µM [falling, single point].

Question: With `Cc1cccc(NC(=O)c2ccc(S(=O)(=O)N3CCCC3)cc2)c1C` as the compound, how does the Potency read?
Answer: Its Potency is inconclusive: 29.1 µM [activator, single point].

Question: For `CCC(CO)Nc1ncnc2c1cnn2-c1ccc(Cl)cc1` (configuration not stated), which Potency is on record?
Answer: Its Potency is inconclusive: 0.651 µM [activator, full curve].

Question: For `COc1cc(/C=C2/SC(=S)N(CCC(=O)Nc3ccccc3)C2=O)cc(OC)c1OC`, which Potency is on record?
Answer: Its Potency is inconclusive: 23.1 µM [falling, partial curve, poor fit].

Question: For `Cc1ccccc1NC(=O)COc1ccc(Br)cc1C`, which Potency is on record?
Answer: Its Potency is inconclusive: 8.2 µM [activator, partial curve, poor fit].

Question: Which Potency does the source give for `C[C@H]1CN([C@@H](C)CO)C(=O)c2cc(NC(=O)C3CCCCC3)ccc2O[C@H]1CN(C)S(=O)(=O)c1ccccc1` here?
Answer: The Potency was inconclusive: 6.51 µM [falling, single point].

Question: Which Potency does the source give for `Cn1c(CN2CCN(c3cccc(Cl)c3)CC2)nc2ccccc21` here?
Answer: Its Potency is inconclusive: 10.3 µM [falling, partial curve, poor fit].

Question: With `COc1ccc(-n2ccnc2SCC(=O)NC2CCCC2)cc1` as the compound, how does the “activity change, negative = inhibition” value read?
Answer: The value was inactive: 4.72%.

Question: With `COc1cc(C2C(c3ccccc3)C(c3cc(OC)cc(=O)o3)C2c2ccccc2)oc(=O)c1` (configuration not stated) as the compound, how does the Potency read?
Answer: Its Potency is inconclusive: 25.9 µM [falling, single point].

Question: With `O=C(CSc1nc(-c2ccco2)cc(C(F)(F)F)n1)N1CCN(c2cccc(Cl)c2)CC1` as the compound, how does the Potency read?
Answer: Its Potency is inconclusive: 32.6 µM [falling, single point].

Question: For `Cc1ccc2c(C)c(C(=O)N(Cc3ccc(Cl)cc3)C3CCS(=O)(=O)C3)oc2c1` (configuration not stated), which Potency is on record?
Answer: Its Potency is inconclusive: 29.1 µM [falling, single point].

Question: With `CCOC(=O)N1CCN(C(=O)CSCC(=O)Nc2nc(-c3ccc(-c4ccccc4)cc3)cs2)CC1` as the compound, how does the Potency read?
Answer: Its Potency is inconclusive: 4.11 µM [falling, full curve, poor fit].

Question: With `COc1cc2c(cc1OC)C(COc1ccc3c(C)cc(=O)oc3c1)N(C(=O)c1ccc(Cl)cc1)CC2` (configuration not stated) as the compound, how does the Potency read?
Answer: Its Potency is inconclusive: 3.66 µM [falling, single point].

Question: With `CC(CCCC(C)(C)O)NC(=O)c1ccc2oc(CCc3ccccc3)nc2c1` (configuration not stated) as the compound, how does the Potency read?
Answer: The Potency was inconclusive: 18.4 µM [falling, partial curve].

Question: For `O=C1CN(C(=O)c2ccccc2C(F)(F)F)C(c2ccccc2)c2cc(F)ccc2N1` (configuration not stated), which activity change, negative = inhibition is on record?
Answer: The activity change, negative = inhibition was inactive: -8.02% [at 9.27 µM].

Question: Which Potency does the source give for `Cc1ccc(C(=O)Nc2nc3ccc(Cl)cc3s2)o1` here?
Answer: Its Potency is inconclusive: 18.4 µM [activator, partial curve, poor fit].

Question: Which Potency does the source give for `Cc1cc(OCc2cc(C(=O)N(C)Cc3ccccn3)no2)cc(C)c1Cl` here?
Answer: The Potency was inconclusive: 7.31 µM [activator, partial curve].

Question: With `CCc1ccc(C2c3[nH]c4ccccc4c3CCN2C(=O)c2ccc(=O)n(C)n2)cc1` (configuration not stated) as the compound, how does the Potency read?
Answer: The Potency was inconclusive: 29.1 µM [activator, single point].

Question: Which Potency does the source give for `CC(C)NC(=O)COCc1cc(-c2ccc3c(c2)OCO3)on1` here?
Answer: The Potency was inconclusive: 3.66 µM [activator, full curve, poor fit].

Question: With `CCn1c(C2CCN(S(=O)(=O)c3ccc(OC)cc3)CC2)n[nH]c1=S` as the compound, how does the Potency read?
Answer: Its Potency is inconclusive: 20.6 µM [falling, partial curve].

Question: Which Potency does the source give for `CCc1cc2c(=O)n(Cc3ccco3)c(SCc3c(C)noc3C)nc2s1` here?
Answer: Its Potency is inconclusive: 20.6 µM [falling, partial curve].

Question: Which Potency does the source give for `CC(C)(C)NC(=O)NC(=O)CN1CCN(c2ccc(O)cc2)CC1` here?
Answer: The Potency was active: 20.6 µM.

Question: With `CCOC(=O)c1c(-c2ccc(Br)cc2)csc1NC(=O)c1ccccc1F` as the compound, how does the “activity change, negative = inhibition” value read?
Answer: The value was inactive: 3.66%.

Question: For `COc1ccc(CN2CCN(S(=O)(=O)c3ccc(NC(C)=O)cc3)CC2)cc1`, which Potency is on record?
Answer: The Potency was active: 16.4 µM.

Question: For `N#Cc1nc(Cc2ccccc2)oc1N1CCCC1`, which Potency is on record?
Answer: Its Potency is inconclusive: 13 µM [activator, partial curve].

Question: For `Cc1ccccc1-n1nc2c(c1NC(=O)c1c(-c3ccccc3Cl)noc1C)CSC2`, which Potency is on record?
Answer: Its Potency is inconclusive: 13 µM [falling, partial curve, poor fit].

Question: For `O=C(Nc1cccc(F)c1)c1ccc2snnc2c1`, which Potency is on record?
Answer: The Potency was inconclusive: 23.1 µM [activator, single point].

Question: Which “activity change, negative = inhibition” value does the source give for `COc1cc(CNCCO)cc(Cl)c1OCc1ccc(Cl)cc1Cl` here?
Answer: Its value is inactive: 2.34%.

Question: With `CCCCSc1nc2c([nH]1)c(=O)n(C)c(=S)n2C` as the compound, how does the Potency read?
Answer: Its Potency is inconclusive: 23.1 µM [falling, single point].

Question: For `COc1ccc(-c2cc(-c3ccccc3)n3ncnc3n2)cc1`, which “activity change, negative = inhibition” value is on record?
Answer: Its value is inactive: 3.36%.

Question: Which Potency does the source give for `Cc1nc(SCC(=O)N2CC(=O)Nc3ccccc32)c2c(C)c(C)sc2n1` here?
Answer: The Potency was inconclusive: 16.4 µM [falling, single point].

Question: For `COc1cc(C2c3c([nH]c(=O)[nH]c3=O)Nc3ccc4ccccc4c32)ccc1O` (configuration not stated), which “activity change, negative = inhibition” value is on record?
Answer: Its value is inactive: -5.06%.

Question: Which Potency does the source give for `Cc1ccc(-n2nc(C)c(NC(=O)CCl)c2C)cc1` here?
Answer: The Potency was inconclusive: 18.4 µM [falling, single point].

Question: Which “activity change, negative = inhibition” value does the source give for `CCCC1Cc2[nH]c(=O)c(C#N)cc2CO1` (configuration not stated) here?
Answer: The value was inactive: -7.89%.

Question: With `COCC(C)n1c(SCC(=O)N2CCc3ccccc3C2)nc2ccccc2c1=O` (configuration not stated) as the compound, how does the Potency read?
Answer: Its Potency is inconclusive: 32.6 µM [falling, single point].

Question: With `CC(OC(=O)c1ccccc1CCc1ccccc1)C(N)=O` (configuration not stated) as the compound, how does the Potency read?
Answer: The Potency was inconclusive: 20.6 µM [falling, partial curve, poor fit].

Question: Which Potency does the source give for `COc1cc(C(=O)Nc2ccc3nc(SCc4ccc(C)cc4)sc3c2)cc(OC)c1OC` here?
Answer: The Potency was inconclusive: 18.4 µM [falling, single point].

Question: For `COc1ccc2c(c1OC)C(=O)O[C@@H]2[C@H]1c2c(cc3c(c2OC)OCO3)CCN1C`, which Potency is on record?
Answer: The Potency was inconclusive: 10.3 µM [falling, partial curve, poor fit].

Question: For `CCC(C(=O)Nc1ccc(C(=O)N2CCCC2)cc1)c1ccccc1` (configuration not stated), which Potency is on record?
Answer: The Potency was inconclusive: 29.1 µM [falling, single point].

Question: For `CC(=O)c1ccc(N2CCN(C(=O)C3CCN(S(=O)(=O)c4ccc5c(c4)CC(C)N5C(C)=O)CC3)CC2)cc1` (configuration not stated), which Potency is on record?
Answer: Its Potency is active: 14.6 µM.

Question: With `CN(c1ccccc1)S(=O)(=O)c1cccc(NC(=O)c2cc(=O)c3ccccc3o2)c1` as the compound, how does the Potency read?
Answer: The Potency was inconclusive: 29.1 µM [falling, single point].

Question: For `CC(C)[C@@H]1COC(c2cccc(C3=N[C@H](C(C)C)CO3)c2)=N1`, which Potency is on record?
Answer: Its Potency is inconclusive: 20.6 µM [activator, partial curve].

Question: With `COc1cc(/C=C/C(=O)c2cccc([N+](=O)[O-])c2)cc(OC)c1OC` as the compound, how does the “activity change, negative = inhibition” value read?
Answer: Its value is inactive: 8.3%.

Question: Which “activity change, negative = inhibition” value does the source give for `COc1cccc(O)c1CN1CCCC(C(=O)c2cccc(C(F)(F)F)c2)C1` (configuration not stated) here?
Answer: Its value is inactive: 16.5%.

Question: With `O=C(CSC1=NC2(CCCCC2)N=C1c1ccccc1)Nc1ccc2c(c1)OCCO2` as the compound, how does the Potency read?
Answer: Its Potency is inconclusive: 29.1 µM [falling, single point].

Question: Which Potency does the source give for `Cc1cc2cc(CN(Cc3nnnn3C3CCCCC3)CC3CCCO3)c(=O)[nH]c2cc1C` (configuration not stated) here?
Answer: Its Potency is inconclusive: 29.1 µM [falling, partial curve, poor fit].

Question: Which Potency does the source give for `COc1ccccc1-c1nc(-c2ccncc2)no1` here?
Answer: Its Potency is inconclusive: 4.61 µM [activator, partial curve].

Question: For `Cn1nnnc1Sc1ncnc2scc(-c3ccc(F)cc3)c12`, which Potency is on record?
Answer: Its Potency is active: 23.1 µM.

Question: For `Cc1ccc(N(C)C(=O)c2cc(S(=O)(=O)N3CCCC3)cn2C)cc1`, which “activity change, negative = inhibition” value is on record?
Answer: The value was inactive: 4.46%.

Question: Which Potency does the source give for `Cc1c(S(=O)(=O)c2cccc(Cl)c2)nnn1-c1cccc(C(F)(F)F)c1` here?
Answer: The Potency was inconclusive: 20.6 µM [falling, single point].

Question: Which Potency does the source give for `O=C(c1ccco1)N1CCN(C(=O)c2ccc(-c3ccc(Cl)cc3)o2)CC1` here?
Answer: Its Potency is inconclusive: 29.1 µM [falling, single point].

Question: For `OC(CNCc1ccco1)COc1ccccc1` (configuration not stated), which “activity change, negative = inhibition” value is on record?
Answer: Its value is inactive: 0.961%.

Question: With `Nc1nc(-c2ccccc2)c(N=Nc2cccc3ccccc23)s1` as the compound, how does the “activity change, negative = inhibition” value read?
Answer: Its value is inactive: -7.63%.

Question: Which Potency does the source give for `Nc1ccc(C(=O)N2CCN(S(=O)(=O)c3ccc4c(c3)OCCCO4)CC2)cc1[N+](=O)[O-]` here?
Answer: Its Potency is active: 25.9 µM.

Question: With `O=C(O)/C=C/c1ccc([N+](=O)[O-])o1` as the compound, how does the Potency read?
Answer: The Potency was inconclusive: 29.1 µM [activator, single point].

Question: For `CCC(C)(C)NC(=O)CN(C(=O)C(=O)Nc1ccc2c(c1)OCCO2)C1CC1`, which Potency is on record?
Answer: Its Potency is inconclusive: 29.1 µM [activator, single point].

Question: For `COc1ccc(-c2nnc(SCc3nc4ccccc4s3)n2C(C)C)cc1`, which Potency is on record?
Answer: Its Potency is inconclusive: 2.31 µM [activator, single point].

Question: Which Potency does the source give for `O=C(c1n[nH]c(=O)c2ccccc12)N1CCN(c2ccc(F)cc2)CC1` here?
Answer: The Potency was inconclusive: 1.26 µM [falling, partial curve, poor fit].

Question: For `CCCn1c(N2CCN(Cc3cccc(C)c3)CC2)nc2c1c(=O)[nH]c(=O)n2C`, which Potency is on record?
Answer: The Potency was inconclusive: 3.26 µM [activator, single point].
